{"source": "paper PMC12859064", "key": {"[1]": {"biological_target": "T1, GST-TRIM15 ΔCC (126-229) (human) (UniProt Q9C019)", "T1 sequence": "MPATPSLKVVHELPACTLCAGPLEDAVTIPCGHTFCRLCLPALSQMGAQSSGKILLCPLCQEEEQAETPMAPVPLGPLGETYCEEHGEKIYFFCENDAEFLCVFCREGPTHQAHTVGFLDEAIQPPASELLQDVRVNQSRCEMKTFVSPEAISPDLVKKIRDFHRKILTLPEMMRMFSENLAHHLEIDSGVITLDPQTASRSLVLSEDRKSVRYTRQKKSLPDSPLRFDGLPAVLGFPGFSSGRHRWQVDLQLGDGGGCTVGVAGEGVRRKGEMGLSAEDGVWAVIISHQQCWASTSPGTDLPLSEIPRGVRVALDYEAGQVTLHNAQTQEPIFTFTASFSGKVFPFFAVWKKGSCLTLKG", "assay": "pull-down; GST or GST-fused TRIM15 proteins from bacteria immobilised on Glutathione Sepharose 4B; Flag-Axin1 purified from HEK293T; 50 mM Tris-HCl pH 7.4, 150 mM NaCl, 0.5% Triton, 10% glycerol, 1 mM DTT, 4 °C, 4 h or overnight; both purified"}, "GST-TRIM15 (human)": {"biological_target": "T2, GST-TRIM15 (human) (UniProt Q9C019)", "T2 sequence": "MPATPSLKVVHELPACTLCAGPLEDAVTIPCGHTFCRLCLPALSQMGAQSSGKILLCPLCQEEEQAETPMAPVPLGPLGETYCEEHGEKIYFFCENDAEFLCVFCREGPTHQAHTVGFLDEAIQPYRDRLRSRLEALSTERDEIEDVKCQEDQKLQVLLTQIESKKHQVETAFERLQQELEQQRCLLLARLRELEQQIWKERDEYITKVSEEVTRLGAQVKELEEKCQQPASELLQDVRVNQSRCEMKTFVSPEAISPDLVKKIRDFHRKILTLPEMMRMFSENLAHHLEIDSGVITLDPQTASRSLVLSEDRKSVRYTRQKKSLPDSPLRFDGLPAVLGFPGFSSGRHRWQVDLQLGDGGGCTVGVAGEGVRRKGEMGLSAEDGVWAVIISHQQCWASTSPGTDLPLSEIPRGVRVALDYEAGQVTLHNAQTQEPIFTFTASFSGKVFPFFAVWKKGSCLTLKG", "assay": "pull-down; GST or GST-fused TRIM15 proteins from bacteria immobilised on Glutathione Sepharose 4B; Flag-Axin1 purified from HEK293T; 50 mM Tris-HCl pH 7.4, 150 mM NaCl, 0.5% Triton, 10% glycerol, 1 mM DTT, 4 °C, 4 h or overnight; both purified"}, "[2]": {"biological_target": "T3, GST-TRIM15 ΔRING (1-61) (human) (UniProt Q9C019)", "T3 sequence": "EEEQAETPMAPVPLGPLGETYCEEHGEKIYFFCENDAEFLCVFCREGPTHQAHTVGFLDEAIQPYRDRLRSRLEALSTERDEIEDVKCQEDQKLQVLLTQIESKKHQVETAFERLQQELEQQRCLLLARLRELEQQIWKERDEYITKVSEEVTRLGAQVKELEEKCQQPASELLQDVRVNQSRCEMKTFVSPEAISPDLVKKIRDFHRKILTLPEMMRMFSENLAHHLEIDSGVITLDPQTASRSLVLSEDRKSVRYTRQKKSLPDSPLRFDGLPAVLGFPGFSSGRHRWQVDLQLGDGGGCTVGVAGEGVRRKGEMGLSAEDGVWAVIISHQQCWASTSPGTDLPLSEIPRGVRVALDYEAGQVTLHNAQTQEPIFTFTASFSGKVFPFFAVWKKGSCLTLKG", "assay": "pull-down; GST or GST-fused TRIM15 proteins from bacteria immobilised on Glutathione Sepharose 4B; Flag-Axin1 purified from HEK293T; 50 mM Tris-HCl pH 7.4, 150 mM NaCl, 0.5% Triton, 10% glycerol, 1 mM DTT, 4 °C, 4 h or overnight; both purified"}, "[3]": {"biological_target": "GFP-fused Axin1-D (507-749) (mouse)", "assay": "pull-down; GFP-fused Axin1 or its fragments immobilised on anti-GFP magnetic beads; Flag-TRIM15 proteins purified from HEK293T; binding buffer as for the GST pull-down; both purified"}, "GFP-Axin1 (mouse)": {"biological_target": "GFP-Axin1 (mouse)", "assay": "pull-down; GFP-fused Axin1 or its fragments immobilised on anti-GFP magnetic beads; Flag-TRIM15 proteins purified from HEK293T; binding buffer as for the GST pull-down; both purified"}, "[4]": {"biological_target": "exogenous Axin1 (tag not given) (mouse)", "assay": "co-IP; HEK293T cells transfected with the indicated plasmids; lysis buffer 50 mM Tris-Cl pH 7.4, 150 mM NaCl, 0.5% Triton, 10% glycerol; anti-Flag beads where told; Western blot; in Fig. 8d cells treated with P9715 (50 and 100 μM, 36 h)"}, "Flag-Axin1 (mouse)": {"biological_target": "Flag-Axin1 (mouse)", "assay": "co-IP; HEK293T cells transfected with the indicated plasmids; lysis buffer 50 mM Tris-Cl pH 7.4, 150 mM NaCl, 0.5% Triton, 10% glycerol; anti-Flag beads where told; Western blot; in Fig. 8d cells treated with P9715 (50 and 100 μM, 36 h)"}}, "note": "No constants are given. Whether binding was seen depends on the method and setting. For some of these results: A result given as binding can be weak or reduced; the word gives no strength. Sequences can lack the tags named with a protein. For some of these results: In cells and extracts the contact can be indirect.", "data": [{"molecule": "Flag-Axin1 (mouse)", "values": [{"measurement": "binding", "setting": "[1]", "result": "no binding"}, {"measurement": "binding", "setting": "GST-TRIM15 (human)", "result": "binds"}, {"measurement": "binding", "setting": "[2]", "result": "binds"}]}, {"molecule": "Flag-TRIM15 (protein, UniProt Q9C019 1-465) MPATPSLKVVHELPACTLCAGPLEDAVTIPCGHTFCRLCLPALSQMGAQSSGKILLCPLCQEEEQAETPMAPVPLGPLGETYCEEHGEKIYFFCENDAEFLCVFCREGPTHQAHTVGFLDEAIQPYRDRLRSRLEALSTERDEIEDVKCQEDQKLQVLLTQIESKKHQVETAFERLQQELEQQRCLLLARLRELEQQIWKERDEYITKVSEEVTRLGAQVKELEEKCQQPASELLQDVRVNQSRCEMKTFVSPEAISPDLVKKIRDFHRKILTLPEMMRMFSENLAHHLEIDSGVITLDPQTASRSLVLSEDRKSVRYTRQKKSLPDSPLRFDGLPAVLGFPGFSSGRHRWQVDLQLGDGGGCTVGVAGEGVRRKGEMGLSAEDGVWAVIISHQQCWASTSPGTDLPLSEIPRGVRVALDYEAGQVTLHNAQTQEPIFTFTASFSGKVFPFFAVWKKGSCLTLKG", "values": [{"measurement": "binding", "setting": "[3]", "result": "binds"}, {"measurement": "binding", "setting": "GFP-Axin1 (mouse)", "result": "binds"}]}, {"molecule": "Flag-TRIM15 ΔRING (domain or fragment, UniProt Q9C019 62-465) EEEQAETPMAPVPLGPLGETYCEEHGEKIYFFCENDAEFLCVFCREGPTHQAHTVGFLDEAIQPYRDRLRSRLEALSTERDEIEDVKCQEDQKLQVLLTQIESKKHQVETAFERLQQELEQQRCLLLARLRELEQQIWKERDEYITKVSEEVTRLGAQVKELEEKCQQPASELLQDVRVNQSRCEMKTFVSPEAISPDLVKKIRDFHRKILTLPEMMRMFSENLAHHLEIDSGVITLDPQTASRSLVLSEDRKSVRYTRQKKSLPDSPLRFDGLPAVLGFPGFSSGRHRWQVDLQLGDGGGCTVGVAGEGVRRKGEMGLSAEDGVWAVIISHQQCWASTSPGTDLPLSEIPRGVRVALDYEAGQVTLHNAQTQEPIFTFTASFSGKVFPFFAVWKKGSCLTLKG", "values": [{"measurement": "binding", "setting": "[4]", "result": "binds"}, {"measurement": "binding", "setting": "GFP-Axin1 (mouse)", "result": "binds"}]}, {"molecule": "TRIM15-YFP (protein, UniProt Q9C019 1-465) MPATPSLKVVHELPACTLCAGPLEDAVTIPCGHTFCRLCLPALSQMGAQSSGKILLCPLCQEEEQAETPMAPVPLGPLGETYCEEHGEKIYFFCENDAEFLCVFCREGPTHQAHTVGFLDEAIQPYRDRLRSRLEALSTERDEIEDVKCQEDQKLQVLLTQIESKKHQVETAFERLQQELEQQRCLLLARLRELEQQIWKERDEYITKVSEEVTRLGAQVKELEEKCQQPASELLQDVRVNQSRCEMKTFVSPEAISPDLVKKIRDFHRKILTLPEMMRMFSENLAHHLEIDSGVITLDPQTASRSLVLSEDRKSVRYTRQKKSLPDSPLRFDGLPAVLGFPGFSSGRHRWQVDLQLGDGGGCTVGVAGEGVRRKGEMGLSAEDGVWAVIISHQQCWASTSPGTDLPLSEIPRGVRVALDYEAGQVTLHNAQTQEPIFTFTASFSGKVFPFFAVWKKGSCLTLKG", "values": [{"measurement": "binding", "setting": "Flag-Axin1 (mouse)", "result": "binds"}]}, {"molecule": "Flag-TRIM15 ΔCC (protein, UniProt Q9C019) MPATPSLKVVHELPACTLCAGPLEDAVTIPCGHTFCRLCLPALSQMGAQSSGKILLCPLCQEEEQAETPMAPVPLGPLGETYCEEHGEKIYFFCENDAEFLCVFCREGPTHQAHTVGFLDEAIQPPASELLQDVRVNQSRCEMKTFVSPEAISPDLVKKIRDFHRKILTLPEMMRMFSENLAHHLEIDSGVITLDPQTASRSLVLSEDRKSVRYTRQKKSLPDSPLRFDGLPAVLGFPGFSSGRHRWQVDLQLGDGGGCTVGVAGEGVRRKGEMGLSAEDGVWAVIISHQQCWASTSPGTDLPLSEIPRGVRVALDYEAGQVTLHNAQTQEPIFTFTASFSGKVFPFFAVWKKGSCLTLKG", "values": [{"measurement": "binding", "setting": "GFP-Axin1 (mouse)", "result": "no binding"}]}, {"molecule": "Flag-TRIM15 ΔRBC (domain or fragment, UniProt Q9C019 230-465) PASELLQDVRVNQSRCEMKTFVSPEAISPDLVKKIRDFHRKILTLPEMMRMFSENLAHHLEIDSGVITLDPQTASRSLVLSEDRKSVRYTRQKKSLPDSPLRFDGLPAVLGFPGFSSGRHRWQVDLQLGDGGGCTVGVAGEGVRRKGEMGLSAEDGVWAVIISHQQCWASTSPGTDLPLSEIPRGVRVALDYEAGQVTLHNAQTQEPIFTFTASFSGKVFPFFAVWKKGSCLTLKG", "values": [{"measurement": "binding", "setting": "GFP-Axin1 (mouse)", "result": "no binding"}]}]}
